Data on ten molecules can be found in paper PMC8618245, “Mechanisms of CP190 Interaction with Architectural Proteins in Drosophila Melanogaster” (International Journal of Molecular Sciences, 2021).

The target in assay [1] is GST-fused CG31365 324–455 (Drosophila melanogaster). The assay can be described thus: pull-down; GST pull-down from lysate of BL21 cells co-expressing the GST-fused C2H2 fragment and 6×His-Thioredoxin-fused CP190 1–126; glutathione agarose, buffer C (20 mM Tris pH 7.5, 150 mM NaCl, 10 mM MgCl2, 0.1 mM ZnCl2, 0.1% NP40, 10% glycerol, 1 mM DTT), +4 °C, washes with 500 mM NaCl.

The target of assay [2] is GST-fused CG4730 1–133 (Drosophila melanogaster). Described as above.
Assay [3] has as its target CP190 BTB domain V7A fused to the GAL4 DNA-binding domain (Drosophila melanogaster). The assay can be described thus: two-hybrid; C2H2 proteins or their fragments fused to the GAL4 activation domain (pGAD424), CP190 BTB, D or M domain or full-length CP190 fused to the GAL4 DNA-binding domain (pGBT9); yeast strain pJ69-4A; growth on media without tryptophan, leucine, histidine and adenine compared after 2–3 days, 30 °C; includes the screen of a library of 154 C2H2 proteins.

Assay [4] addresses CP190 BTB domain V114N fused to the GAL4 DNA-binding domain (Drosophila melanogaster). The description is as above.
Assay [5] deals with CP190 BTB domain L118A fused to the GAL4 DNA-binding domain (Drosophila melanogaster). Described as above.
Assay [6] addresses CP190 BTB domain K117S fused to the GAL4 DNA-binding domain (Drosophila melanogaster). The assay is described as above.
Assay [7] addresses CP190 BTB domain V114A fused to the GAL4 DNA-binding domain (Drosophila melanogaster). The description is as above.
Assay [8] concerns the target CP190 BTB domain K19A fused to the GAL4 DNA-binding domain (Drosophila melanogaster). The assay is described as above.
The target in assay [9] is CP190 BTB domain F15A fused to the GAL4 DNA-binding domain (Drosophila melanogaster). The assay is described as above.
Assay [10] has as its target CP190 BTB domain fused to the GAL4 DNA-binding domain (Drosophila melanogaster). Described as above.

Results are given in words; binding and its absence hold for the method and conditions named. For some assays here: Binding calls can cover weak binding; strength is not graded here. Where a sequence is shown, tags or fusion partners need not be part of it. For some assays here: Binding seen in cells or lysates may run through a third protein.

B1: 6×His-Thioredoxin-fused CP190 1–126 F15A (domain or fragment, Drosophila melanogaster, UniProt Q24478 1-126, looked up)
chain: MGEVKSVKVDNWGVAFLQKLQNFFNKTDYCDLTLQFRDNSQLKVHRLVLSACTDYFNVLEQTCEIVDDALIMPNEFQADVVVPIVNFMYTGTLEFELKMYGKLLRTAKEMNMTVLLKLLEAHRRTM
notes: CP190, Drosophila melanogaster, residues 1–126 (BTB domain); source: E. coli BL21, co-expressed with the GST fusion, in lysate (pull-down); bacterial expression (cross-linking)
As to B1, the binding result in assay [1] and in assay [2] was “binds” in each case.

B2: 6×His-Thioredoxin-fused CP190 1–126 L118A (domain or fragment, Drosophila melanogaster, UniProt Q24478 1-126, looked up)
chain: MGEVKSVKVDNWGVFFLQKLQNFFNKTDYCDLTLQFRDNSQLKVHRLVLSACTDYFNVLEQTCEIVDDALIMPNEFQADVVVPIVNFMYTGTLEFELKMYGKLLRTAKEMNMTVLLKALEAHRRTM
notes: CP190, Drosophila melanogaster, residues 1–126 (BTB domain); also called BTB^L118A; source: E. coli BL21, co-expressed with the GST fusion, in lysate (pull-down); bacterial expression (cross-linking)
As for B2, the binding entry in [1] and in assay [2] was “binds” in each case.

B3: 6×His-Thioredoxin-fused CP190 1–126 V114A (domain or fragment, Drosophila melanogaster, UniProt Q24478 1-126, looked up)
chain: MGEVKSVKVDNWGVFFLQKLQNFFNKTDYCDLTLQFRDNSQLKVHRLVLSACTDYFNVLEQTCEIVDDALIMPNEFQADVVVPIVNFMYTGTLEFELKMYGKLLRTAKEMNMTALLKLLEAHRRTM
notes: as for B1
On to B3, for which the binding result in [1] and in assay [2] was “binds” each time.

B4: 6×His-Thioredoxin-fused CP190 1–126 K117S (domain or fragment, Drosophila melanogaster, UniProt Q24478 1-126, looked up)
chain: MGEVKSVKVDNWGVFFLQKLQNFFNKTDYCDLTLQFRDNSQLKVHRLVLSACTDYFNVLEQTCEIVDDALIMPNEFQADVVVPIVNFMYTGTLEFELKMYGKLLRTAKEMNMTVLLSLLEAHRRTM
notes: as for B1
Regarding B4, the binding result in assay [1] and in assay [2] was “binds” each time.

B5: 6×His-Thioredoxin-fused CP190 1–126 K19A (domain or fragment, Drosophila melanogaster, UniProt Q24478 1-126, looked up)
chain: MGEVKSVKVDNWGVFFLQALQNFFNKTDYCDLTLQFRDNSQLKVHRLVLSACTDYFNVLEQTCEIVDDALIMPNEFQADVVVPIVNFMYTGTLEFELKMYGKLLRTAKEMNMTVLLKLLEAHRRTM
notes: as for B1
Consider B5, for which the binding entry in [1] and in assay [2] was “binds” each time.

B6: 6×His-Thioredoxin-fused CP190 1–126 V114N (domain or fragment, Drosophila melanogaster, UniProt Q24478 1-126, looked up)
chain: MGEVKSVKVDNWGVFFLQKLQNFFNKTDYCDLTLQFRDNSQLKVHRLVLSACTDYFNVLEQTCEIVDDALIMPNEFQADVVVPIVNFMYTGTLEFELKMYGKLLRTAKEMNMTNLLKLLEAHRRTM
notes: as for B1
Consider B6, for which the binding entry in [1] and in assay [2] was “binds” each time.

B7: 6×His-Thioredoxin-fused CP190 1–126 V7A (domain or fragment, Drosophila melanogaster, UniProt Q24478 1-126, looked up)
chain: MGEVKSAKVDNWGVFFLQKLQNFFNKTDYCDLTLQFRDNSQLKVHRLVLSACTDYFNVLEQTCEIVDDALIMPNEFQADVVVPIVNFMYTGTLEFELKMYGKLLRTAKEMNMTVLLKLLEAHRRTM
notes: CP190, Drosophila melanogaster, residues 1–126 (BTB domain); also called BTB^V7A; source: E. coli BL21, co-expressed with the GST fusion, in lysate (pull-down); bacterial expression (cross-linking)
For B7, the binding result in assay [1] and in [2] was “binds” throughout.

B8: Pita ∆114–164 fused to the GAL4 activation domain (protein, UniProt Q95RQ8)
chain: MAAKLEVREAMLTEKRVCRFCLTEQKLASIFEENPRVKTTANLPLQIMAITAIEVYAGDGMPGHICLECRLLFEHCYRFKQMCKRAETLLRQYPLTGNWPSPLEKPRAPMTMVAGSSPVPRRSHAYELKVDNNQELSMDDVQSMLEDMASELEKEFPDIPQKASPVKPKVLNKSSIRILNKGPAAPVEPRLATPKVKRDDSGNVAIVTEVLDSDLPLDDQDDPTKNAEKVATDVFPCPDCERSFPLQQLLEIHRLNHTRSRSFQCLLCEKSFFSKYDLAKHNFVHTGERPFKCAICSKAFTRKALLHRHERTHTDVPKFICVYCEKPFLSRQEMEKHAERHQKKRPFQCGVCTKSFAFKQGLERHETVHSTNLPFPCQHCERSFSTASKLARHLVAHAGKRAYPCKYCHKSYMLSHHLSRHLRTHTQTSDASFVCSECKVSYSNYNDLLDHALIHATASLKCPMCRKQIEDIDSVESHMDQHKQSERHACEFCDHIFLTQKCLQRHIEDDHVVEMEPYQNEFEDDGEGEGGVDEKEEHLDDFEDMDNVKQEEFVTEYLEDDALYEDHLDDSDESFTPPPPKQRKTNPPKDAQQSVRQTRSRDAQRITQKTGKNEGKPHHKLERNLKNRRSAK
Consider B8, for which the binding result in assay [3] is “no binding”; in [4] it was “binds”; in assay [5] it was “no binding”; in assay [6] it was “binds”; in assay [7], “binds”; in [8], “binds”. In [9], the binding entry is reported as “binds”.

B9: Pita ∆220–232 fused to the GAL4 activation domain (protein, UniProt Q95RQ8)
chain: MAAKLEVREAMLTEKRVCRFCLTEQKLASIFEENPRVKTTANLPLQIMAITAIEVYAGDGMPGHICLECRLLFEHCYRFKQMCKRAETLLRQYPLTGNWPSPLEKPRAPMTMVASKKLLVVPAKTAEPSETPKKLLNTMAKSSSQVIIEDVQVLESAMVTPRTVAGSSPVPRRSHAYELKVDNNQELSMDDVQSMLEDMASELEKEFPDIPQKASPVKPGPAAPVEPRLATPKVKRDDSGNVAIVTEVLDSDLPLDDQDDPTKNAEKVATDVFPCPDCERSFPLQQLLEIHRLNHTRSRSFQCLLCEKSFFSKYDLAKHNFVHTGERPFKCAICSKAFTRKALLHRHERTHTDVPKFICVYCEKPFLSRQEMEKHAERHQKKRPFQCGVCTKSFAFKQGLERHETVHSTNLPFPCQHCERSFSTASKLARHLVAHAGKRAYPCKYCHKSYMLSHHLSRHLRTHTQTSDASFVCSECKVSYSNYNDLLDHALIHATASLKCPMCRKQIEDIDSVESHMDQHKQSERHACEFCDHIFLTQKCLQRHIEDDHVVEMEPYQNEFEDDGEGEGGVDEKEEHLDDFEDMDNVKQEEFVTEYLEDDALYEDHLDDSDESFTPPPPKQRKTNPPKDAQQSVRQTRSRDAQRITQKTGKNEGKPHHKLERNLKNRRSAK
For the molecule B9, in assay [10], the binding result was “no binding”.

B10: Su(Hw) fused to the GAL4 activation domain (protein, UniProt P08970 1-941)
chain: MSASKEGKEKKGKLLGVENISPPKDKRPATRMKLLNDVGAGEDSEASTTTTTSRTPSNKQEKRGSVAGSRIKILNEEILGTPKTEKRGATKSTAPAASTVKILNEKKTPSATVTAVETTKIKTSPSKRKKMEHYVLQAVKSENTKADTTVTVVTEEDDTIDFILADDEEVVPGRIENNNGQEIVVTEDDEDLGEDGDEDGEDSSGKGNSSQTKIKEIVEHVCGKCYKTFRRVQSLKKHLEFCRYDSGYHLRKADMLKNLEKIEKDAVVMEKKDICFCCSESYDTFHLGHINCPDCPKSFKTQTSYERHIFITHSEFSDFPCSICNANLRSEALLALHEEQHKSRGKPYACKICGKDFTRSYHLKRHQKYSSCSSNETDTMSCKVCDRVFYRLDNLRSHLKQHLGTQVVKKPEYMCHTCKNCFYSLSTLNIHIRTHTGEKPFDCDLCDKKFSALVALKKHRRYHTGEKPYSCTVCNQAFAVKEVLNRHMKRHTGERPHKCDECGKSFIQATQLRTHSKTHIRPFPCEQCDEKFKTEKQLERHVKTHSRTKRPVFSCAECKRNFRTPALLKEHMDEGKHSPKQQRSSMRSAVKIMERTDCAICDKNFDSSDTLRRHIRTVHECDPDDIFGVEPHPSKRAKKDIESEEVVPVALNTSAGSLISSQTDGNGVVVREFLVDEGDGAAQTITLENETYTILPLDGAIEGEQLTDEAGVKPEAKKEEAQVSPVVKKEQRKSLAASLAAAIADNLEESCSEDDFSGEILTEEDIKLKENVGKLIDMLVDPPILKKYGWPNAPEETVLCKVIENCGHDLTKGGENYAELDYGSRMREYCKLLFTVVIHNDSIKSLLNNFPIDDVIEYVLGDEDQDEGGLDKDNESHSGDEEAVSVTGETKTNEIREKPEKKEVSAKSEKKEIVGKAVDKDNSEEVVRENKKKPVGEQEKA
Regarding B10, the binding result in assay [10] is “binds”.
